The results in this text go back to US5108900A, “Monoclonal antibodies to synthetic pyrethroids and method for detecting the same” (Regents of the University of California, priority 1989, dated 1992).

The data set is described as follows: Recovery of 14C-labeled permethrin through the extraction procedure in ground beef samples. The settings on record: ground beef spiked with 500 ng/g permethrin.

As for `CC1(C)C(C=C(Cl)Cl)C1C(=O)OCc1cccc(Oc2ccccc2)c1` (mixture of isomers) [Permethrin, 3-phenoxybenzyl (lRS),cis,trans-3(2,2-dichlorovinyl)-2,2-dimethylcyclopropanecarboxylate], the “total radiolabel recovered in the final benzene fraction” value was 62% +/-2.9. Moreover, for the setting “radiolabel”, the “recovery in the acetonitrile extract (after fat removal)” value is reported as 72% +/-1.7 and the “recovery in the hexane fraction” value is 65.5% +/-3.5.
